Experimental data from PubChem BioAssay AID493014 (National Center for Advancing Translational Sciences (NCATS), 2011).
Some of the results follow. Further columns of the screen follow, without active or inactive calls. The list favours compounds with an active or inconclusive main result. Potencies come from curve fits of mixed quality, noted in brackets.

Assay: qHTS Assay to Find Inhibitors of Chronic Active B-Cell Receptor Signaling
Settings: ABC-DLBCL IkBa-CBG/CBR reporter, luminescence ratio (green luciferase fused to IkBa over red control in TMD8 lymphoma cells), 4 h
In short: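 TMD8 ABC-DLBCL cells carrying doxycycline-inducible green luciferase fused to IkappaBalpha plus unfused red luciferase were exposed to compounds (up to 46 uM) for 4 hrs at 37C. Activity came from the overlap-corrected green/red luminescence ratio.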

[1] = measured here: CBR red luminescence, cell number
[2] = measured here: IkBa-CBG green luminescence

Row | Structure (SMILES) | AC50 [1] | AC50 [2]
1 | C/C(CC(=O)Nc1cccc(Cl)c1Cl)=N\NC(=O)c1ccccc1Br | 20 µM [falling, partial curve, poor fit] | –
2 | CC1S/C(=C(\C#N)C(=O)NCc2ccco2)N(Cc2ccco2)C1=O (configuration not stated) | 8.91 µM [falling, partial curve, poor fit] | –
3 | Cc1csc(NC(=O)c2sccc2C)n1 | 14.1 µM [falling, partial curve, poor fit] | –
4 | Cc1ccc(NC(=O)CO/N=C(\N)c2nonc2N)cc1 | 18.4 µM [falling, single point] | –
5 | CCOC(=O)N1CCc2c(sc(NCc3sccc3C)c2C(=O)Nc2ccc(OC)cc2OC)C1 | 35.5 µM [falling, single point] | –
6 | COc1ccc(C2=CN3CCCCC3CC2=O)cc1OC (configuration not stated) | 10.3 µM [rising, partial curve] | –
7 | COC(=O)c1ccc(NC(=O)CNC(=O)c2sc3ccccc3c2Cl)cc1 | 0.00651 µM [falling, full curve, poor fit] | –
8 | Cn1ncc2c(N3CCN(c4cccc(Cl)c4)CC3)ncnc21 | 35.5 µM [rising, single point] | –
9 | Cc1cccc(-c2nc(C#N)c(N3CCCCCC3)o2)c1 | 18.4 µM [rising, partial curve] | –
10 | Nc1ccc(C(=O)OCC(=O)NC2CCCc3ccccc32)cc1[N+](=O)[O-] (configuration not stated) | 2.31 µM [falling, partial curve, poor fit] | –
11 | COc1ccc(-n2nnnc2-c2ccccc2)cc1 | 0.517 µM [falling, partial curve, poor fit] | –
12 | COc1ccc(C(=O)COC(=O)CNC(=O)c2ccc(OC)cc2)cc1 | 5.62 µM [falling, single point] | –
13 | Brc1cccc(OCCOCCn2ccnc2)c1 | 29.1 µM [rising, single point] | –
14 | O=C(NCc1ccc(Cl)cc1)Nc1ccc(F)cc1 | 2.51 µM [rising, full curve, poor fit] | –
15 | CCOc1ccc(NC(=O)N(C2CCCC2)C2CCN(C(C)=O)CC2)cc1 | 10 µM [rising, partial curve, poor fit] | –
16 | Cc1nc2ccccc2n1CC(=O)N/N=C/c1cccnc1 | 12.6 µM [rising, partial curve, poor fit] | –
17 | O=C(COc1cc(F)ccc1[N+](=O)[O-])NCC1CCCO1 (configuration not stated) | 0.58 µM [falling, full curve] | –
18 | COc1ccc(-n2c(-c3ccc(OC)c(OC)c3)n[nH]c2=S)cc1 | 35.5 µM [rising, single point] | –
19 | N#CCCN/N=C(/Cc1nc2ccccc2[nH]1)c1cccc(Cl)c1 | 2.59 µM [falling, full curve, poor fit] | –
20 | CN(C(=O)c1cccnc1)c1nc(-c2ccccc2)cs1 | 11.2 µM [rising, partial curve] | –

Row | Structure (SMILES) | AC50 [1] | AC50 [2]
21 | COc1ccc([C@H]2CC(=O)C=C(c3cccc(OC)c3OC)C2)cc1OC | 32.6 µM [falling, single point] | –
22 | COc1ccc(-c2cc(C(F)(F)F)nc(SCCC(=O)NCc3ccccc3)n2)cc1 | 25.9 µM [rising, partial curve, poor fit] | –
23 | Cc1ccc(Nc2nc(N)c([N+](=O)[O-])c(N3CCCC(C)C3)n2)cc1C (configuration not stated) | 0.411 µM [rising, partial curve, poor fit] | –
24 | CC(=O)Nc1ccc(S(=O)(=O)NCCC(=O)OCCN2C(=O)c3ccccc3C2=O)cc1 | 35.5 µM [rising, single point] | –
25 | COc1ccc(NC(=O)CN(C)C(=O)CN2C(=O)c3ccc([N+](=O)[O-])cc3C2=O)cc1 | 0.1 µM [rising, full curve, poor fit] | –
26 | COc1ccc(CCNC(=O)CCC(=O)n2ncc3cc(C)ccc32)cc1OC | 3.55 µM [rising, full curve, poor fit] | –
27 | CCn1cc(C(=O)NC(=S)Nc2ccccc2Br)cn1 | 3.98 µM [falling, single point] | –
28 | CCN(C(=O)c1cc2c(=O)n3cccc(C)c3nc2n1CCCOC)C1CCCCC1 | 12.6 µM [falling, single point] | –
29 | Cc1ccccc1Nc1nc(-c2sc(NC(=O)c3cccc(Cl)c3)nc2C)cs1 | 8.91 µM [falling, partial curve, poor fit] | –
30 | COc1ccc(-c2ccc(SCC(=O)Nc3cccc(C(C)=O)c3)nn2)cc1OC | 12.6 µM [falling, partial curve] | –
31 | Cc1cc(Oc2ccccc2)nc2ccc(O)cc12 | 3.98 µM [rising, full curve, poor fit] | –
32 | CN(C)c1ccc(C(=O)c2ccc(N(C)C)c3ccccc23)cc1 | 0.651 µM [rising, full curve, poor fit] | 0.651 µM [falling, full curve]
33 | CC1=NNC(=O)/C1=C\c1cn(-c2ccccc2)nc1-c1ccc(F)cc1 | 35.5 µM [falling, single point] | 20 µM [rising, single point]
34 | CCCC(=O)Nc1ccc(C(=O)NCC(=O)OCC)cc1 | 14.6 µM [rising, partial curve] | –
35 | c1csc(-c2nnc(-c3ccc(N4CCOCC4)cc3)o2)c1 | 35.5 µM [rising, partial curve, poor fit] | –
36 | O=C(NCCc1ccccc1)C(=O)NCC1OCCN1S(=O)(=O)c1ccc2c(c1)OCCO2 (configuration not stated) | 25.1 µM [falling, single point] | –
37 | CCOC(=O)Cc1csc(SCC(=O)NC2CCCC(C)C2C)n1 (configuration not stated) | 25.9 µM [rising, single point] | –
38 | CCOC(=O)c1cc2c(ccn2-c2ccc(F)cc2)n1CC(=O)N1CCN(C(=O)c2ccco2)CC1 | 0.501 µM [rising, full curve, poor fit] | –
39 | Cc1cc(C(=O)COC(=O)c2cc(O)c3ccccc3c2O)c(C)n1CC1CCCO1 (configuration not stated) | 22.4 µM [falling, single point] | –
40 | COc1cc(/C=C/C(=O)N(C)CC(=O)Nc2ccccc2SC)cc(OC)c1OC | 1.64 µM [rising, full curve, poor fit] | –

As entered above.
Under AC50 [1], `CCOC(=O)N1CCc2c(sc(NCc3sccc3C)c2C(=O)Nc2ccc(OC)cc2OC)C1` has the entry 35.5 µM [falling, single point]
Under AC50 [1], `O=C(COc1cc(F)ccc1[N+](=O)[O-])NCC1CCCO1` (configuration not stated) has the entry 0.58 µM [falling, full curve]
